Results from article PMC10163288.
The list shows a part of the results.

B1: il10ra_site1_normal_mot_HHH_b1_02131_000000111_0001_1_18_H_._HHH_b1_01897_0001_0000500034_0000001_0 (protein)
chain: SSSSDQEVLELLIEAVRLLFRGNPEEARKLAEQAEEVAEELGDPRLEEAVRIVLRAIELASSSSS
B2: il10ra_site1_sap_20_mot_HHH_b1_00103_000000293_0001_1_15_H_._HHH_b2_04127_0001_0000200016_0000001_0_0001 (protein)
chain: SSSSSSSEEIEELFKLAEKAAKIDDEEEARKVLEEAAELAEELNNRVVLYSVRHLLKDLSSSSSS
B3: il10ra_site1_sap_11_mot_HHH_b1_01082_af2_000000031_0001_3_19_H_._HHH_b1_05633_0001_0000200008_0000001_0_0001 (protein)
chain: SSSSSSEEVFELIREAAELLADGNPEEAREVLEEAQRLAEEENSPNMLMNLRYLEEQVNSSSSSS
B4: il10ra_site1_sap_16_mot_HHH_b2_00092_000000181_0001_22_39_H_._750e19d4ca9b34c144e44c01c74de867_0001_af2_0001_0000300026_0000001_0_0001_af2pred_0001 (protein)
chain: SSSSDEEEVEELIKEIEELLEEGDPEKAVELIRRLVELAHELRDPELARIVRELSRLVVRISSSS
B5: il10ra_site1_normal_mot_a445c54e3280ddb545be3b99cff61ffd_0001_1_000000013_0001_36_50_H_._HHH_b1_00305_0001_0000300014_0000001_0_af2pred_0001 (protein)
chain: SSSSSSELEEHIEELVKEFGLSEEQERALRYLAKFAKEIGASEEIIERSLENAARLLRLGSSSSS
B6: il10ra_site1_sap_28_mot_HHH_b1_04940_000000219_0001_1_18_H_._HHH_b1_03345_af2_0001_0000100005_0000001_1_0001_af2pred_dldesign_0_af2pred (protein)
chain: SSSSDLGEILLERAIRALRLLGADEAVAEAEKKLALYKETKDKSLLTSTLQEAVERARELESSSS
B7: il10ra_site1_sap_7_mot_HHH_b1_02062_000000185_0001_1_20_H_._HHH_b1_06583_0001_0000100001_0000001_0_0001 (protein)
chain: SSSSDEERRRVYELSRRVAELDHEGNPEEAERVLEEAIELAEEANNRVMLAVLEHLERILRSSSS
B8: il10ra_site1_sap_20_mot_9c3e5e2d2b9ffb70dc788f52fbfab6d5_0001_1_000000198_0001_1_14_H_._HHH_b1_07345_0001_0000400032_0000003_0_0001_af2pred_0001 (protein)
chain: SSSSSEEERALRLLVKAYRLLLQGDPEEAEEVLEEALEVAEKGNDEAARKAIENLLRLLESSSSS
B9: il10ra_site1_sap_25_mot_HHH_b1_01513_af2_000000021_0001_1_16_H_._c7a8016648b91b3f39f317faa92015d4_0001_1_0002_0000100002_0000001_0_0001 (protein)
chain: SSSSSESEEILEEARKLLEELRERNDADELFRLIERAIKELLRLNDPEAARRLVEFFVHLSSSSS
B10: il10ra_site1_normal_mot_8756ee2cf497b5429c717dfc0c0bcfd6_0001_000000186_0001_1_13_H_._HHH_b2_00624_0001_0000100003_0000003_0 (protein)
chain: SSSSTEESEELYELLREAAELHHDGNPEEARELLEEAEELAREAGNDVALATIEYLLRLAGSSSS
B11: il10ra_site1_normal_mot_HHH_b1_00456_000000263_0001_1_17_H_._HHH_b2_04506_af2_0001_0000200005_0000001_0_1_af2pred_0001 (protein)
chain: SSSSSEEVEEEVRELLEKAEKITDRHEVAYLLIRAFALAAELRDEELKEEVRRVAQELADSSSSS
B12: il10ra_site1_sap_24_mot_HHH_b2_00952_af2_000000228_0001_1_18_H_._HHH_b2_04843_af2_0001_0000500014_0000001_0_0001_af2pred_0001 (protein)
chain: SSSSDKHLQQEVRALLWVAQIIDDKEAAELAVEIAEKIAEELGDEELKEEVEEVKEEIKNSSSSS
B13: il10ra_site1_normal_mot_HHH_b2_05813_000000266_0001_1_19_H_._HHH_b1_07748_0001_0000200010_0000002_0_af2pred_0001 (protein)
chain: SSSSNEEFLQILVEIQRLIDENPEYEEELRELAVRVAELLREKDREEAQKLLEEARELFEGSSSS
B14: il10ra_site1_normal_mot_HHH_b2_07569_000000265_0001_38_56_H_._HHH_b2_04128_af2_0001_0000400019_0000001_0 (protein)
chain: SSSSSDIARIAQEALRLAIRLGDQETVQEIWELVKEYFKKGDPEIEEALEELLEELKELGSSSSS
B15: il10ra_site1_sap_18_mot_HHH_b2_07413_af2_000000250_0001_42_56_H_._HHH_b2_00766_0001_0000500039_0000002_0_0001_af2pred_dldesign_0_af2pred (protein)
chain: SSAEEARAALDEAEALAKKKKDEKAIAAVRYLRELLDAAEAANNEEAIALVLRSAKTLLAILKES
B16: il10ra_site1_normal_mot_HHH_b1_00999_000000080_0001_41_55_H_._HHH_b1_04433_af2_0001_0000300038_0000001_0 (protein)
chain: SSSSDEEAEELREQAEEAAKEGDPQKALQLLQEAVRFALEESDEELLQEIWELVRKIGELKSSSS
B17: il10ra_site1_sap_15_mot_HHH_b2_04275_000000272_0001_20_36_H_._HHH_b2_06886_0001_0000100002_0000001_0_0001 (protein)
chain: SSSSDQEVFERVAEAIKEAIELLRNGNPEEAQKVIEEAIELAEEAGNRVMVWVLRWLLKRISSSS
B18: il10ra_site1_sap_8_mot_1c3c3e46dde0d4e4be3ec3dd9add6289_0001_000000096_0001_34_50_H_._HHH_b1_05516_0001_0000400033_0000002_0_0001 (protein)
chain: SSSSTSLERAWKIAREALERLQEGDEERVEELLRLLEELAEEFNNPIIEYLLEAIRRDLESSSSS
B19: il10ra_site1_sap_12_mot_HHH_b2_02315_000000136_0001_19_35_H_._HHH_b2_04721_0001_0000400033_0000001_1_0001 (protein)
chain: SSSSDEENQEVLELLREAFELALRGNPEEAEKVLERALKLAEEIGNPRAFEMIERMLRALKSSSS
B20: il10ra_site1_sap_29_mot_HHH_b2_00479_000000091_0001_1_12_H_._HHH_b1_02357_0001_0000800039_0000001_0_0001 (protein)
chain: DEELKEAIAQLLWALSRLLKDDPEKFKEVFHIAMQAYLAAQQGDEKEAEELVEELEELVRKLSSS
B21: il10ra_site1_sap_17_mot_9368472692dc9678e81f248f6367350b_0001_000000260_0001_20_35_H_._HHH_b1_01010_0001_0000500026_0000002_0_0001 (protein)
chain: SSSSDEEVRKAFELAARAMRVAHERGDAELLKELDRLAIELYREGDPRLAEELRELAEKILSSSS
B22: il10ra_site1_sap_14_mot_HHH_b1_04607_af2_000000104_0001_41_57_H_._HHH_b1_04456_0001_0000300015_0000001_0_0001 (protein)
chain: SSSSDEEYKEVKEALREAIELFKEGDPEEAEELLRELVEKLRELGNRLMVIQVEWLLELEKSSSS
B23: il10ra_site1_normal_mot_HHH_b1_05357_000000034_0001_23_39_H_._HHH_b1_01677_0002_0000100004_0000002_0_af2pred_0001 (protein)
chain: SSSSSSDEEEVERLLEEARKIEDPERVSELLTQALIIALRANNEELEEEVKEVAQELRSSSSSSS
B24: il10ra_site1_normal_mot_HHH_b1_04514_000000156_0001_1_18_H_._HHH_b2_03570_af2_0001_0000200014_0000001_0 (protein)
chain: SSSSSEEYELIKKIIEEVHRLQEEGDPEEAEELLRELAKLLEENNNLVALANVERLLRLLSSSSS
B25: il10ra_site1_normal_mot_HHH_b2_04742_000000132_0001_1_17_H_._4b1d40a09f4e66830ace03c15345b22d_0001_1_af2_0001_0000300017_0000001_0 (protein)
chain: DDIFKLQAELAAKDPKVLEAISERAREAKEEGDEQHFRTFLLLLQLVVELYGDPEAKELLEELEK
B26: il10ra_site1_sap_17_mot_e1dd4851c59bc1cdde016f988f6856bd_0001_1_000000200_0001_16_31_H_._b5d408fb59e05adbbadd706aaa09cbfb_0001_0001_0000700012_0000001_0_0001 (protein)
chain: SSSSDKEDRELIKAAIRLAKQAYEAGNDESARLILWAAEFLAEELGDEELRREIEELAEEISSSS
B27: il10ra_site1_sap_11_mot_HHH_b2_02287_000000121_0001_1_22_H_._HHH_b2_06223_af2_0001_0000400021_0000001_1_0001 (protein)
chain: SELEEARELVEEDPEEVAKEAREIARERGDPQMEETLELLLEAIERDPDNRAALYLLAQALAALR
B28: il10ra_site1_normal_mot_HHH_b2_06399_000000160_0001_1_19_H_._HHH_b1_05237_0001_0000100001_0000001_0 (protein)
chain: SSSSDVLEEVHRLIREAVELLQEGNPEEARKVIEEAVELAEENNNEVALIQAEFLARTIESSSSS
B29: il10ra_site1_sap_19_mot_HHH_b2_00076_000000055_0001_40_55_H_._HHH_b1_00748_0001_0000500032_0000001_0_0001 (protein)
chain: SSSSDEEVRELLEEAEELLEEGNPEEALEVVFRATHAAIQAQDPELLRLVWELVREVAKVSSSSS
B30: il10ra_site1_sap_15_mot_HHH_b1_08311_000000105_0001_40_57_H_._HHH_b2_03279_af2_0001_0000300013_0000001_0_0001 (protein)
chain: SSSSSDEAQELFEILREAIELMSQGNPEEAEELLEKARELAERLGNRVFRWLVEWLLERLSSSSS
B31: il10ra_site1_sap_23_mot_HHH_b2_02736_000000092_0001_22_38_H_._HHH_b1_07390_af2_0001_0000300014_0000002_0_0001_af2pred_0001 (protein)
chain: SSSSSEVEETIRVLLRAIRELIKRDPERARLAIRDAKVAIEHANDPELEKLLEELEEELESSSSS
B32: il10ra_site1_sap_18_mot_HHH_b1_01886_000000262_0001_1_18_H_._HHH_b2_01511_0001_0000100015_0000001_0_0001 (protein)
chain: SSSSSSDEEEEVEELVEQAEKIEDEEKVIRLLLRAVQLALRLSDPELLHLVWRVFKELSSSSSSS
B33: il10ra_site1_normal_mot_HHH_b1_06786_000000000_0001_1_20_H_._HHH_b2_07016_0001_0000100007_0000001_0 (protein)
chain: SSSSTEESQEVQKLLREAAQLRHKNPEEAEELAEEALRLAREAGNEVLEFSAERMLRALRSSSSS
B34: il10ra_site1_normal_mot_HHH_b2_06979_000000158_0001_42_57_H_._HHH_b1_06291_0001_0000100010_0000001_0 (protein)
chain: SSSSDLSQRIIELIRQAAELLRKGNPEEAEKVLEEAEELAEERNNELLLINVRFLLRDINSSSSS
B35: il10ra_site1_sap_16_mot_HHH_b2_00093_af2_000000025_0001_40_54_H_._HHH_b1_03751_0001_0001000047_0000001_0_0001_af2pred_0001 (protein)
chain: SSSSSEEERFYQLLLEALRLARRLNDEEVEEELRELLEEYKQKGDPRVEERIEELLKELRSSSSS
B36: il10ra_site1_sap_26_mot_HHH_b1_04771_000000013_0001_40_56_H_._HHH_b2_07490_af2_0001_0000100003_0000002_0_0001 (protein)
chain: SSSNKEVYERLAELVKEALERLVQAGDREEAERFFRIVENFLRSANNPEVLEELEELFERLSSSS
B37: il10ra_site1_normal_mot_HHH_b1_05672_af2_000000246_0001_1_19_H_._ems_3hC_444_af2_0001_0000400050_0000001_0 (protein)
chain: SSDLREEFSRVLIRAVRAAARHDEEKAEELVRRAEEIAEELGDEELERYVEIVKNFVESATRSSS

molecular target: il10ra, Q13651; assay: yeast display titration

Apparent Kd, inactive:
B1 no binding seen
B2 no binding seen
B3 no binding seen
B4 no binding seen
B5 no binding seen
B6 no binding seen
B7 no binding seen
B8 no binding seen
B9 no binding seen
B10 no binding seen
B11 no binding seen
B12 no binding seen
B13 no binding seen
B14 no binding seen
B15 no binding seen
B16 no binding seen
B17 no binding seen
B18 no binding seen
B19 no binding seen
B20 no binding seen
B21 no binding seen
B22 no binding seen
B23 no binding seen
B24 no binding seen
B25 no binding seen
B26 no binding seen
B27 no binding seen
B28 no binding seen
B29 no binding seen
B30 no binding seen
B31 no binding seen
B32 no binding seen
B33 no binding seen
B34 no binding seen
B35 no binding seen
B36 no binding seen
B37 no binding seen

8 consecutive entries out of the list so far, quoted:
Apparent Kd, inactive:
B29 no binding seen
B30 no binding seen
B31 no binding seen
B32 no binding seen
B33 no binding seen
B34 no binding seen
B35 no binding seen
B36 no binding seen
